From US20040204434A1, “Compounds and methods for lowering the abuse potential and extending the duration of action of a drug” (Controlled Chemicals Inc., priority 2003, published 2004)
At least one read-out could not be matched to a standard name with certainty.

Legend:
Pancreatin = experiment: Effect of pancreatin on release of oxycodone from prodrugs; settings: Pancreatin 0.5 mg/mL at 37° C., pH 7.4
Pepsin = experiment: Effect of pepsin on release of oxycodone from prodrugs; type: in vitro ADME; settings: Pepsin 2 mg/mL at 37° C., pH 2

Substance | Half-Life for Hydrolysis, plus pancreatin (Pancreatin) | Half-Life for Hydrolysis, plus pepsin (Pepsin)
poly(ethylene glycol), Mr 2,000, methyl ether, carboxy ((3-methoxy-14-hydroxy-6,7-didehydro-4,5α-epoxy-17-methylmorphinan-6-yl) ester) methyl ether [Compound 8] | 1 h | 
poly(ethylene glycol), Mr 2,000, methyl ether, N-carbonylglutamic acid 1-(3-methoxy-14-hydroxy-6,7-didehydro-4,5α-epoxy-17-methylmorphinan-6-yl) ester [Compound 4] | 4.8 h | 105 h
poly(ethylene glycol), Mr 2,000, methyl ether, carbonylimidodiacetic acid mono-(3-methoxy-14-hydroxy-6,7-didehydro-4,5α-epoxy-17-methylmorphinan-6-yl) ester [Compound 5] | 8 h | 103 h
